# Assay results: the supplement of paper PMC3334620
# The full ranking holds about 33,000 sequences; the median of “E-score (-0.5 to 0.5)” is about -0.015, and the highest 2% start at about 0.3. This is one part of the list.
# Biological target: T1, Abf1 (UniProt P14164)
# T1 sequence: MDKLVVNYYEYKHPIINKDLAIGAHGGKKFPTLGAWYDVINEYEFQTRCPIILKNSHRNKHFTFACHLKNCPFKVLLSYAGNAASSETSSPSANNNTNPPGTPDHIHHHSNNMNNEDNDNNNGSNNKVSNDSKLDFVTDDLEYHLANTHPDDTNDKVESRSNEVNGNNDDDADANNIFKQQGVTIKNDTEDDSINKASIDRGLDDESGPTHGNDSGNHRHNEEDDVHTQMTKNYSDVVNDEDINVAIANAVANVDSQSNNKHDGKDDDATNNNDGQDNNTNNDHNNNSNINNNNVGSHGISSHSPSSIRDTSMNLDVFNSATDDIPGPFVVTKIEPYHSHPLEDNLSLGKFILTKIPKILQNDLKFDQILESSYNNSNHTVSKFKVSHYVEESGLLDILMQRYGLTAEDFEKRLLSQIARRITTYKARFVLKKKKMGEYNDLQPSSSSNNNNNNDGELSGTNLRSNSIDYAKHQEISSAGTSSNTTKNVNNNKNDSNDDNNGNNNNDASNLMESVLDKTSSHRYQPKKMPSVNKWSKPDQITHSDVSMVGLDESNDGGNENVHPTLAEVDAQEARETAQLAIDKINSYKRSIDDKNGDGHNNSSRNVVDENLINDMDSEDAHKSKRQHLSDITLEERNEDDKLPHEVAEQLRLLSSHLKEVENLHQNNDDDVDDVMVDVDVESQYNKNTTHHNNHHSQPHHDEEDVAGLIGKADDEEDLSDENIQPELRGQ
# Experiment: PBM E-score (8-mer binding enrichment) (E-score (-0.5 to 0.5)); higher = stronger / more preferred TF binding
# Conditions: protein concentration: 200 nM; construct: GST-full length
# Method in brief: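 Full-length yeast transcription factors or their DNA-binding domains, GST-tagged and expressed with PURExpress, were applied at about 100-200 nM to universal all-10-mer Agilent arrays. These arrays had been made double-stranded by primer extension on fresh or once-stripped slides. Detection used fluorescent anti-GST, normalisation used masliner, and E-scores for ungapped eight-base words pooled with reverse complements came from the Universal PBM Analysis Suite.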
row,Sequence,PBM E-score
1,GTGCTCGA,-0.0517
2,GTGTGGTA,-0.0368
3,AAACGCAA,0.0157
4,ATATATGG,0.0135
5,ACCATATC,0.0983
6,CGAGGGCG,-0.171
7,ACACAGAC,0.0197
8,AGGTTAAA,-0.0493
9,ATTCTCAA,0.217
10,GCAGTTCC,-0.106
11,AGTACATA,0.0814
12,CAGCTTGA,-0.141
13,AGTCTAAG,0.0137
14,CTAGTTGA,-0.00191
15,CCCTGTAA,-0.159
16,ACTCAGTG,-0.087
17,CCTCGTCA,0.192
18,AATTAGAG,0.0856
19,AAAAAGCT,0.0693
20,CTCACTAC,0.203
21,AGAATATA,0.0825
22,AACGGGCA,-0.0317
23,AATGCATC,-0.0642
24,AAATGCTA,0.0313
25,TATGCAAA,-0.07

# Nothing new here: entries from further up.
row,Sequence,PBM E-score
16,ACTCAGTG,-0.087
17,CCTCGTCA,0.192
18,AATTAGAG,0.0856
19,AAAAAGCT,0.0693

# Further entries:

row,Sequence,PBM E-score
1,GGCCGACC,-0.165
2,ACGATTCA,0.226
3,AGGGTAAT,0.0413
4,CGCTCCCC,-0.178
5,TCCTCAAA,0.00233
6,ACGCAAGA,0.155
7,ATGGAAAG,-0.0545
8,GCAACCGC,-0.0536
9,GTCTCACA,0.0381
10,AGAGGGGA,-0.163
11,AACCGGCG,-0.0688
12,GATTGGAA,-0.006
13,GATACTAA,0.19
14,AAGTCATA,0.129
15,CCGTTTCA,0.0707
16,ACAGGTTG,-0.228
17,CAGTGTCA,-0.171
18,CCACGCTA,0.155
19,AGCCTCCG,-0.13
20,TACATAGA,0.093
21,CTCTACGA,0.189
22,CATTTCGG,-0.0384
23,CTGCTGCA,-0.168
24,CGCAGAAC,0.0104
25,CAGCGACA,0.0383

row,Sequence,PBM E-score
1,CGCGGAAA,-0.0356
2,GAAACACA,0.0862
3,GACCCATC,-0.112
4,AGTTTGAC,0.0137
5,ATCAAGAC,-0.0623
6,ACGGATAA,0.264
7,CCACTTCC,0.00801
8,CGCATCTC,0.0248
9,AGCACTCG,-0.131
10,AACTTTGA,0.0972
11,AGGAAAGA,-0.11
12,ACCCGTCG,0.0953
13,AGTCCTGG,-0.0844
14,CCATCCTC,-0.21
15,TCCTCGCA,-0.132
16,CAAAGATG,0.0356
17,GACGAATA,0.232
18,CGTACAGA,0.308
19,AAGGAATG,0.0105
20,ATCTTCAA,0.0356
21,AATATGAG,-0.0117
22,CTTGCCGA,0.0165
23,ATAACCTA,0.17
24,CCGCACCG,-0.105
25,ATTAGCTC,0.0751

row,Sequence,PBM E-score
1,ACCTCAGC,0.0792
2,ACATTGAA,0.0551
3,ATCTAGCC,-0.063
4,CAGACTCG,-0.287
5,ACACGCTC,0.0285
6,GGGGCGCA,-0.225
7,CACTCGCC,-0.00715
8,GGGCCTGA,-0.187
9,AGGGCATG,-0.167
10,AGCCTACA,-0.17
11,ACCGTGAA,0.278
12,CCGGTACA,0.144
13,CAACAGCC,-0.119
14,ATGTCATC,0.394
15,CACGAAGA,0.316
16,ACAGGTGC,-0.298
17,ACTGATGG,-0.21
18,ACGGGCGA,-0.00147
19,ACGTAGTA,0.206
20,AGTGCCAG,-0.152
21,AGTGTATG,-0.0706
22,AGGCGTCA,-0.0931
23,ACGCTTAG,0.0744
24,AATCGTCT,0.269
25,AGACTACA,-0.0384

row,Sequence,PBM E-score
1,CAGGTTCG,-0.058
2,ATTTATGC,-0.0479
3,GACAAAAC,0.196
4,TTAAGTAA,0.0118
5,CTAAGGAC,0.0621
6,CGGGGACC,-0.146
7,ATTCCGAG,0.166
8,AAGCATTC,-0.073
9,AATACGTC,0.138
10,CTTACGCA,0.0889
11,TCATACAA,-0.0621
12,CCAGCTCG,-0.205
13,ATATTCTG,0.157
14,CTATTGAA,-0.161
15,CGGAGGCC,-0.298
16,CACTGGCA,-0.156
17,ATTACATC,0.0796
18,ATTAGCGA,0.136
19,ACTTGTCC,0.0261
20,CTAAGGTA,0.0359
21,GGTAGCTA,-0.16
22,TAGTGACA,0.414
23,AGGTATAT,0.0387
24,ACAAGCCT,-0.0911
25,AGATAAGG,0.00618

row,Sequence,PBM E-score
1,AGGGGATC,-0.0732
2,ATTGTCAG,0.141
3,AGCGACCC,-0.0656
4,GTCTGCAA,-0.0352
5,AGCCGCAG,-0.26
6,ACTGTACC,-0.0561
7,GAGAGACA,-0.0355
8,CGTAATCC,0.206
9,AGAAGCAG,-0.157
10,CATAGTGG,-0.179
11,AGATCGTC,0.266
12,TATCGCGA,0.34
13,ACCAACTG,-0.0158
14,ACAAGGTG,0.0662
15,GACGAGGA,0.131
16,CTCTGGTA,-0.152
17,AGCCGTGG,-0.0408
18,GACATTAC,0.16
19,AGGCCGAA,0.074
20,ATGATGAA,0.306
21,GGCGATAA,0.0146
22,CACATCCC,-0.0296
23,CCATTTAC,0.013
24,ATTTAGCC,0.0158
25,ACCCAGCG,-0.136

row,Sequence,PBM E-score
1,AAGGGATT,0.0664
2,ACTGAGGA,-0.181
3,AAAGAGGT,-0.0718
4,ACCACTAT,0.102
5,GATACAAC,0.171
6,ATTTACGG,0.0718
7,GACTCAAC,0.0509
8,ATTTTGAA,0.258
9,AGCAGATA,-0.0913
10,CTTGCATA,0.0552
11,CACCGTCG,0.105
12,TGCATGAA,-0.0459
13,CCACTAAC,-0.214
14,GATAGAGC,0.109
15,CGTGGGAA,0.187
16,GTATTAAC,0.178
17,TGCCAAAA,0.128
18,AAAGTTCA,-0.195
19,ACTTTACG,0.105
20,CGGCACGC,-0.0795
21,TAGCGGAA,-0.0226
22,ATCCACTG,-0.0849

# Some of the entries above, set out differently:
row	Sequence	PBM E-score
23	CTGCTGCA	-0.168
24	CGCAGAAC	0.0104
